Experimental findings from article PMC6381143 are described below.

Chains of the proteins cited; added tags and fusions are not shown.
UniProt Q969H0: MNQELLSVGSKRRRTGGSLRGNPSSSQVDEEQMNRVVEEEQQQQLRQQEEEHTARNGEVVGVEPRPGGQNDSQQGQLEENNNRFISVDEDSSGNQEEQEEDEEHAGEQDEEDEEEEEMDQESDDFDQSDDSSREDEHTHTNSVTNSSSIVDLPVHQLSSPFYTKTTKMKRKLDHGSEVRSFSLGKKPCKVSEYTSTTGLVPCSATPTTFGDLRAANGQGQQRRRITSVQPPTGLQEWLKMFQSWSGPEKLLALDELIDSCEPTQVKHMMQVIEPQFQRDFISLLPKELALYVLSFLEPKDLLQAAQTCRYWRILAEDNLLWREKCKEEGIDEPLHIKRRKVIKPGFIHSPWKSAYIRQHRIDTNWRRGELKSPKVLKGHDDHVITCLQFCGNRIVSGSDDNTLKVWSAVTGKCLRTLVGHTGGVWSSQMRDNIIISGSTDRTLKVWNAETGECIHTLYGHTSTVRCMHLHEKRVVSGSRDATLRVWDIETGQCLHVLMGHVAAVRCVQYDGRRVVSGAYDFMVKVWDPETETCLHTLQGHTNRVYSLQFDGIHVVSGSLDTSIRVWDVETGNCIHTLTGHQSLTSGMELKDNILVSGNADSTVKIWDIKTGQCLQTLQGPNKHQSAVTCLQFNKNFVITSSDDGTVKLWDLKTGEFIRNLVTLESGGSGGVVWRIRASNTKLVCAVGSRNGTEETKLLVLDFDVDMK

Results are given in words; binding and its absence hold for the method and conditions named. In cells and extracts the contact can be indirect. Some results given as binding are weak or reduced against the parent protein; the word gives no strength. For part of these data: Sequences can lack the tags named with a protein.

For experiment [1], the target named is FBXW7α, exogenous (human) (UniProt Q969H0). Kind of experiment: co-IP; exogenous proteins in HEK-293T cells; FBXW7 precipitated, ZEB2 detected by blot.
In experiment [2] the target is FLAG-Fbxw7 made in TNT-coupled reticulocyte lysate (human) (UniProt Q969H0). Briefly: co-IP; IP from TNT-coupled reticulocyte lysate.
The target in experiment [3] is endogenous FBXW7 (human (endogenous in HCT116)) (UniProt Q969H0). Briefly: co-IP; endogenous proteins in HCT116 cells (cells with FBXW7 deletion beside them); FBXW7 precipitated, ZEB2 detected by blot.

B1: GFP-ZEB2 (human ZEB2 full-length cDNA in pEGFP-C2) (protein, UniProt O60315 1-1214)
chain: MKQPIMADGPRCKRRKQANPRRKNVVNYDNVVDTGSETDEEDKLHIAEDDGIANPLDQETSPASVPNHESSPHVSQALLPREEEEDEIREGGVEHPWHNNEILQASVDGPEEMKEDYDTMGPEATIQTAINNGTVKNANCTSDFEEYFAKRKLEERDGHAVSIEEYLQRSDTAIIYPEAPEELSRLGTPEANGQEENDLPPGTPDAFAQLLTCPYCDRGYKRLTSLKEHIKYRHEKNEENFSCPLCSYTFAYRTQLERHMVTHKPGTDQHQMLTQGAGNRKFKCTECGKAFKYKHHLKEHLRIHSGEKPYECPNCKKRFSHSGSYSSHISSKKCIGLISVNGRMRNNIKTGSSPNSVSSSPTNSAITQLRNKLENGKPLSMSEQTGLLKIKTEPLDFNDYKVLMATHGFSGTSPFMNGGLGATSPLGVHPSAQSPMQHLGVGMEAPLLGFPTMNSNLSEVQKVLQIVDNTVSRQKMDCKAEEISKLKGYHMKDPCSQPEEQGVTSPNIPPVGLPVVSHNGATKSIIDYTLEKVNEAKACLQSLTTDSRRQISNIKKEKLRTLIDLVTDDKMIENHNISTPFSCQFCKESFPGPIPLHQHERYLCKMNEEIKAVLQPHENIVPNKAGVFVDNKALLLSSVLSEKGMTSPINPYKDHMSVLKAYYAMNMEPNSDELLKISIAVGLPQEFVKEWFEQRKVYQYSNSRSPSLERSSKPLAPNSNPPTKDSLLPRSPVKPMDSITSPSIAELHNSVTNCDPPLRLTKPSHFTNIKPVEKLDHSRSNTPSPLNLSSTSSKNSHSSSYTPNSFSSEELQAEPLDLSLPKQMKEPKSIIATKNKTKASSISLDHNSVSSSSENSDEPLNLTFIKKEFSNSNNLDNKSTNPVFSMNPFSAKPLYTALPPQSAFPPATFMPPVQTSIPGLRPYPGLDQMSFLPHMAYTYPTGAATFADMQQRRKYQRKQGFQGELLDGAQDYMSGLDDMTDSDSCLSRKKIKKTESGMYACDLCDKTFQKSSSLLRHKYEHTGKRPHQCQICKKAFKHKHHLIEHSRLHSGEKPYQCDKCGKRFSHSGSYSQHMNHRYSYCKREAEEREAAEREAREKGHLEPTELLMNRAYLQSITPQGYSDSEERESMPRDGESEKEHEKEGEDGYGKLGRQDGDEEFEEEEEESENKSMDTDPETIRDEEETGDHSMDDSSEDGKMETKSDHEEDNMEDGM
As to B1, in experiment [1], the binding entry was “binds”.

B2: ZEB2 made in TNT-coupled reticulocyte lysate (protein, UniProt O60315 1-1214)
chain: B1 chain
For B2, the binding result in experiment [2] is recorded as “binds”.

B3: endogenous ZEB2 (protein, UniProt O60315 1-1214)
chain: B1 chain
In the case of B3, the binding result in experiment [3] is “binds”.
